The test deals with TFIP11-FLAG deletion mutant lacking the G-patch domain only (human) (UniProt Q9UBB9). Briefly: co-IP; HeLa cells co-transfected with RFP-coilin and TFIP11-FLAG constructs; IP with anti-FLAG antibodies, western blotting. (A western blot detects proteins with antibodies after separation by electrophoresis.)

The chains behind the UniProt entries cited, without tags or fusion partners. Where a name states a change or a piece, a line headed by the entry shows the natural chain unless it says otherwise.
UniProt Q9UBB9: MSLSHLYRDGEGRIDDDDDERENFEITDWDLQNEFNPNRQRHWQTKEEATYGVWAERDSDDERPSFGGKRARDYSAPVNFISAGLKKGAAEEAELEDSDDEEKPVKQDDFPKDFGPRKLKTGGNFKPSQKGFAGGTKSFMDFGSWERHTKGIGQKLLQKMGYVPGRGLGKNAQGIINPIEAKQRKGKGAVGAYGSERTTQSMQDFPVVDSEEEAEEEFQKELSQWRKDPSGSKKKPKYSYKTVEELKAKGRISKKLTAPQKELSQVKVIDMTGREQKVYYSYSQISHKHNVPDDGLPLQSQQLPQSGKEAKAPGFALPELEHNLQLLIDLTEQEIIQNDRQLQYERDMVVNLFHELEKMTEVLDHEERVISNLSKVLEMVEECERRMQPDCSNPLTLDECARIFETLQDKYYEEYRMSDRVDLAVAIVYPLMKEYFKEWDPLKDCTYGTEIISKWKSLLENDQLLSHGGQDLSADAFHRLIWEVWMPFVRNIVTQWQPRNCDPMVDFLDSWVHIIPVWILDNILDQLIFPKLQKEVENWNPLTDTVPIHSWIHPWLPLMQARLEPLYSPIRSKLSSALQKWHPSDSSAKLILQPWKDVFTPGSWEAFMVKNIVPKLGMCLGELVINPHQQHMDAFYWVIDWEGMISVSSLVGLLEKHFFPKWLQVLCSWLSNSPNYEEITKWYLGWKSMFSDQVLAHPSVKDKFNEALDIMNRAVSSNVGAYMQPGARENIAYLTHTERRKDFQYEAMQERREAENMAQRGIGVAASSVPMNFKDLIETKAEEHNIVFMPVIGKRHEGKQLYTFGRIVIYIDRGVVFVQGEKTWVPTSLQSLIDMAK
UniProt P38432: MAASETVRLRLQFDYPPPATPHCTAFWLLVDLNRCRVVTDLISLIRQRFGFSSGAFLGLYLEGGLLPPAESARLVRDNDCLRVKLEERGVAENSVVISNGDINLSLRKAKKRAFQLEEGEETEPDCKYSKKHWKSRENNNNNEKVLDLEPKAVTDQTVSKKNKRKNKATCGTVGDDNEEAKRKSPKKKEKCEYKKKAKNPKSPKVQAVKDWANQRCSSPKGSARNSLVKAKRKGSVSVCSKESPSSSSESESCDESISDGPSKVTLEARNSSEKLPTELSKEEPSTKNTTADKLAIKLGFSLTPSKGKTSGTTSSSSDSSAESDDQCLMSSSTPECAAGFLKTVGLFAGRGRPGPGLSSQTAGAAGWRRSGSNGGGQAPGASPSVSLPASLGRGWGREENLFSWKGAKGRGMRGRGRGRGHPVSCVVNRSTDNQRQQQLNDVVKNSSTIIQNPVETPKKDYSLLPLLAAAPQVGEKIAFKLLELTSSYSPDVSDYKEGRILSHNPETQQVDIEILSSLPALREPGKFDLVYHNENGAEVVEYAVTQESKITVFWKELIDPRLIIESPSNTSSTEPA

These are yes or no findings as the source states them, for the method shown. Binding seen in cells or lysates may run through a third protein. A result given as binding can be weak or reduced; the word gives no strength.

Take RFP-coilin (from UniProt P38432 1-576): the binding entry is “binds”.

The record behind these values is paper PMC8599867.
